These are yes or no findings as the source states them, for the method shown. Binding seen in cells or lysates may run through a third protein. These calls come from enrichment with a bait or labelling near it, and not all partners need be listed.
What was measured:
[1] = molecular target: cullin 9 (CUL9) (human (endogenous in HeLa)) (UniProt Q8IWT3); assay: affinity purification with mass spectrometry; MS of anti-CUL9 and anti-FBXL10 immunoprecipitates from M-phase HeLa cell lysates
[2] = molecular target: T1, FBXL10 (human (endogenous in HeLa)) (UniProt Q8NHM5); assay: as above
T1 sequence: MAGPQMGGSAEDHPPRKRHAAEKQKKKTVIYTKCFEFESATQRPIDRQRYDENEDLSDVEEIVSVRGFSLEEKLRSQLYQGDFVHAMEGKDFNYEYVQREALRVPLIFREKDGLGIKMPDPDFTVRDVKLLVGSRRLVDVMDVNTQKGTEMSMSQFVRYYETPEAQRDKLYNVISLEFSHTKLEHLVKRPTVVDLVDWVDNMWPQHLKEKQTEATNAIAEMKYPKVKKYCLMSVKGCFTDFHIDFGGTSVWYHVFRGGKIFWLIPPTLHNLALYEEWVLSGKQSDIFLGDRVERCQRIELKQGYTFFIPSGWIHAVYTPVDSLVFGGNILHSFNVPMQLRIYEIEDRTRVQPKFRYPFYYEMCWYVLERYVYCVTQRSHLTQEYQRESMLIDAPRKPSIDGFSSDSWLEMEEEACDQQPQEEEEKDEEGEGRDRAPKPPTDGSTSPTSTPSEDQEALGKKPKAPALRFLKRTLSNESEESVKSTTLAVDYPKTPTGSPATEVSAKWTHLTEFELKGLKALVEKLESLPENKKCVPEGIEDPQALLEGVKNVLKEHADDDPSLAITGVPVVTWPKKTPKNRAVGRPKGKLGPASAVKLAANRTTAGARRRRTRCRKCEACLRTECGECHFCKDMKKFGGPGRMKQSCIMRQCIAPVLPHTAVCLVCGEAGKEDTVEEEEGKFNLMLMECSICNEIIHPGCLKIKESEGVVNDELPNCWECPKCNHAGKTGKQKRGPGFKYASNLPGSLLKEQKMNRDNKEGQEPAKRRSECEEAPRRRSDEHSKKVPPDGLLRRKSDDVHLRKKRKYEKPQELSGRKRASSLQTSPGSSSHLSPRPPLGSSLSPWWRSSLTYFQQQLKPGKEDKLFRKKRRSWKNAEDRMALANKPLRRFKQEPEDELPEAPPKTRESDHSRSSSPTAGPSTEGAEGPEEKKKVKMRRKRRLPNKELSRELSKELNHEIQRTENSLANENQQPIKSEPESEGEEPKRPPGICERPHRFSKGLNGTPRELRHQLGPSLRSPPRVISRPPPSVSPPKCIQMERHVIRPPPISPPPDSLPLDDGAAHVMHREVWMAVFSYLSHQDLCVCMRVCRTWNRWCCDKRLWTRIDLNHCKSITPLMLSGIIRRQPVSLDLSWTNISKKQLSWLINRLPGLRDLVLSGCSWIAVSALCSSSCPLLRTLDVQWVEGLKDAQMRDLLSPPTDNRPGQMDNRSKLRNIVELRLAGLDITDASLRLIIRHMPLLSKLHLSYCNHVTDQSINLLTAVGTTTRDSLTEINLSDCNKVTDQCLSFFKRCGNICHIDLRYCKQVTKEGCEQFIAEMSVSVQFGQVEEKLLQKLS

Amino acid sequences for entries named in this document (tags omitted). Residues count along the entry.
UniProt Q8IWT3: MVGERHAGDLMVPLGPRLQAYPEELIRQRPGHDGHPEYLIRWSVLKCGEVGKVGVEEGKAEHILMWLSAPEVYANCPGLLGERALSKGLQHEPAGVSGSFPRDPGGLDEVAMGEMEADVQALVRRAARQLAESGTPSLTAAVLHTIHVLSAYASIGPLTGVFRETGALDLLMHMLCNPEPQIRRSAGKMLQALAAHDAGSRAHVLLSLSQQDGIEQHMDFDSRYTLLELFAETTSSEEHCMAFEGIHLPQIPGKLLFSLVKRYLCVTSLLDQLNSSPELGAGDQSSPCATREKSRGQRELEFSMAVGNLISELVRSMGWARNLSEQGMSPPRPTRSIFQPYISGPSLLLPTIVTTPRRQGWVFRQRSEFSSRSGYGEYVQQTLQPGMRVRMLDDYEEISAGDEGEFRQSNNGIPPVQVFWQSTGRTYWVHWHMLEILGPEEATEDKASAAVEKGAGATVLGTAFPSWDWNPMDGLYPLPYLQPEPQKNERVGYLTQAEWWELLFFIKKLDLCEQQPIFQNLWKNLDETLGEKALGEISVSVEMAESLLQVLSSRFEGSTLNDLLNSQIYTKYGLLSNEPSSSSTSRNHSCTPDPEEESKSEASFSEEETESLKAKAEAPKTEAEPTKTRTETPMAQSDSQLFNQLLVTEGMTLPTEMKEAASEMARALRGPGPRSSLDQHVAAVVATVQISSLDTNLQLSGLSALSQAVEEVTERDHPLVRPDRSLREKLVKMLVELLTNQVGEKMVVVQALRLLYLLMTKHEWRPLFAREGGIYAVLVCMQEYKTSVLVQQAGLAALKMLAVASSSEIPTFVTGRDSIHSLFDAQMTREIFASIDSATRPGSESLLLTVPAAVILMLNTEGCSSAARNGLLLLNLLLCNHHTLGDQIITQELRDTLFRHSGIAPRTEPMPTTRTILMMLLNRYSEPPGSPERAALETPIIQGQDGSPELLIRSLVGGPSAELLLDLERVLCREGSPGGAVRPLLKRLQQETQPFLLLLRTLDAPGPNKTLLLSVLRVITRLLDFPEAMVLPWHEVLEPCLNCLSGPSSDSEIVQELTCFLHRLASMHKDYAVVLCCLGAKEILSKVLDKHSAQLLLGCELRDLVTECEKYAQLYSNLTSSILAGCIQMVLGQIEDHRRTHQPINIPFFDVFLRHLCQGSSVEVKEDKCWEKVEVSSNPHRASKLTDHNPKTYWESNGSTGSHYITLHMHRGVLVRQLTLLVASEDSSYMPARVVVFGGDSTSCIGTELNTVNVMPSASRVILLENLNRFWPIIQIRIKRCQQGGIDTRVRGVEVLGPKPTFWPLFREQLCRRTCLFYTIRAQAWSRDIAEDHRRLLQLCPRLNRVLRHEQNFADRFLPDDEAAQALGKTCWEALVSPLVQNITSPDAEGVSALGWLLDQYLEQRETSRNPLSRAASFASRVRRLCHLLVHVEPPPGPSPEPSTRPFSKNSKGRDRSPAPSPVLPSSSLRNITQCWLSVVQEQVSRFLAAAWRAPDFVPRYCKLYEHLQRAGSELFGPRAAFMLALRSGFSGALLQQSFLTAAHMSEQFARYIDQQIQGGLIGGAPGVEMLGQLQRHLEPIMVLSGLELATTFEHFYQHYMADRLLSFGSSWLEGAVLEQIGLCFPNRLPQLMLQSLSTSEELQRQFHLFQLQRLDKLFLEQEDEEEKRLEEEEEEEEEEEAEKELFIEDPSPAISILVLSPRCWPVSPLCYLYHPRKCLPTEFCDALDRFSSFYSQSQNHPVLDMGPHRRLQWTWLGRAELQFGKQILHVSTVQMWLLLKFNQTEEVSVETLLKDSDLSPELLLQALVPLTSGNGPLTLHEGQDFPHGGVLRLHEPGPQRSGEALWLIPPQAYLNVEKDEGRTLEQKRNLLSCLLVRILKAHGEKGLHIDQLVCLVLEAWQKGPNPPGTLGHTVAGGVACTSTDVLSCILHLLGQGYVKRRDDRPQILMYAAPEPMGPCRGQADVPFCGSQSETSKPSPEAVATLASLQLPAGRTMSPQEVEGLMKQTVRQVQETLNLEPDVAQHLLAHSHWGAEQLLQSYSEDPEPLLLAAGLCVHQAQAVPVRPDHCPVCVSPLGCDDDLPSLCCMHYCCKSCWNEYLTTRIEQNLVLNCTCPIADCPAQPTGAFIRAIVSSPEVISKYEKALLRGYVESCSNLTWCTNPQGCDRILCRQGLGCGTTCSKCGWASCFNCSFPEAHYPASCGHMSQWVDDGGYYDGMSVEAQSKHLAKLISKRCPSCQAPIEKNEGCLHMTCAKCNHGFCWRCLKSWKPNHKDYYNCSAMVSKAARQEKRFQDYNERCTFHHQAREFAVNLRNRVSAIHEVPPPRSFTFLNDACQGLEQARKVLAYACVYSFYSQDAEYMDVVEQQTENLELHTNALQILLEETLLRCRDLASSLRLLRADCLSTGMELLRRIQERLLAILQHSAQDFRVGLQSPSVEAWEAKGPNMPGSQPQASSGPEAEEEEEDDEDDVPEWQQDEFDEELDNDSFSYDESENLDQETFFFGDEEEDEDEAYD
UniProt Q15843, residues 1-76: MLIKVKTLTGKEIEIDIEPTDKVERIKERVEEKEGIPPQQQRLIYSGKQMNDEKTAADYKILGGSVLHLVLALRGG
UniProt P63208: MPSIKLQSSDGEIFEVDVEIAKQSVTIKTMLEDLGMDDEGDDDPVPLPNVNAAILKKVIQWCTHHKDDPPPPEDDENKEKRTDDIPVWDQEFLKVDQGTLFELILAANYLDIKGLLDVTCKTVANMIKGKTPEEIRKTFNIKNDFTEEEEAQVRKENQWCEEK

Row | Substance | binding [1] | binding [2]
1 | NEDD8 (from UniProt Q15843 1-76) | binds | binds
2 | SKP1 (from UniProt P63208 1-163) | binds | binds
